Assay results as given in the supplement of paper PMC10849652.
The list shows a part of the results.

By UniProt entry, the sequences of proteins in these tests, tags left out. Where a name states a change or a piece, a line headed by the entry shows the natural chain unless it says otherwise.
UniProt O75054: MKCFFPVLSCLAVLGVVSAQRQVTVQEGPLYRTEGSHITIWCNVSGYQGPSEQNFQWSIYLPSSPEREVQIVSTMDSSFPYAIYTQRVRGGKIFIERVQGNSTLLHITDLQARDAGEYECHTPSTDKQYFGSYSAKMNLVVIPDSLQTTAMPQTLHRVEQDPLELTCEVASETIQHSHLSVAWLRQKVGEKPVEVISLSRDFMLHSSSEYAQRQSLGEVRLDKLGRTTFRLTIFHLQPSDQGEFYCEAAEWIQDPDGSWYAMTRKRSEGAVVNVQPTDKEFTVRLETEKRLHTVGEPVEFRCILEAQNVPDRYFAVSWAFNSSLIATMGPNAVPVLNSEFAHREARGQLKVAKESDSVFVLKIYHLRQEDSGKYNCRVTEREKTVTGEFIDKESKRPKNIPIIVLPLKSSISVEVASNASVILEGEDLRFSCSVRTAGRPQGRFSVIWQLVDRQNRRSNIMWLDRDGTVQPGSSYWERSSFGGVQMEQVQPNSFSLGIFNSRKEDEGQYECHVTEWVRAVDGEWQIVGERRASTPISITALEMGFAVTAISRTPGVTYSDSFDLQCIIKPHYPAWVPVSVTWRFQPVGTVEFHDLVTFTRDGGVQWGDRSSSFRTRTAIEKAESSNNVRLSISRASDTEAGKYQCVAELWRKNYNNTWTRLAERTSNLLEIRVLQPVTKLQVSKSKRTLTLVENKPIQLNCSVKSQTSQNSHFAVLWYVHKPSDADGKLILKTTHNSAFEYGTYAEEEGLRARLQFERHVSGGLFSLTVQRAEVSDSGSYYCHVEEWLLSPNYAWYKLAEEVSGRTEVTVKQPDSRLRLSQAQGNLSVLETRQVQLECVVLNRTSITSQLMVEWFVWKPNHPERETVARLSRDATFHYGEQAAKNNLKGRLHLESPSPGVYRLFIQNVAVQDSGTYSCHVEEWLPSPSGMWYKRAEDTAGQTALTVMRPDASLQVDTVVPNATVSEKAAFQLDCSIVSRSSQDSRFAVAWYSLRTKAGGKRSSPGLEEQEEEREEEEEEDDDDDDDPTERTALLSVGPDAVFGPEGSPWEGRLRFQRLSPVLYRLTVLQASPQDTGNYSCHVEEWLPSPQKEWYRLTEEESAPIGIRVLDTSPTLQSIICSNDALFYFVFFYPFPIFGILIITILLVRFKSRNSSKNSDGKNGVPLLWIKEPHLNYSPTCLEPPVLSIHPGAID
UniProt P29218: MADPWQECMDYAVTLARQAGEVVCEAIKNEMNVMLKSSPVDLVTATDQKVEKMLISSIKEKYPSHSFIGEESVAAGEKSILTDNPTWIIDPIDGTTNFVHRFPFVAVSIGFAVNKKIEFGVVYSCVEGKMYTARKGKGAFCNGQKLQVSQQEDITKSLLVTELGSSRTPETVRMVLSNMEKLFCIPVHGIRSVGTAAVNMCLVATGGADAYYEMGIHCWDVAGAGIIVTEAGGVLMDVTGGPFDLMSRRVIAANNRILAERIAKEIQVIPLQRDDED
UniProt Q12906, whole entry, looked up: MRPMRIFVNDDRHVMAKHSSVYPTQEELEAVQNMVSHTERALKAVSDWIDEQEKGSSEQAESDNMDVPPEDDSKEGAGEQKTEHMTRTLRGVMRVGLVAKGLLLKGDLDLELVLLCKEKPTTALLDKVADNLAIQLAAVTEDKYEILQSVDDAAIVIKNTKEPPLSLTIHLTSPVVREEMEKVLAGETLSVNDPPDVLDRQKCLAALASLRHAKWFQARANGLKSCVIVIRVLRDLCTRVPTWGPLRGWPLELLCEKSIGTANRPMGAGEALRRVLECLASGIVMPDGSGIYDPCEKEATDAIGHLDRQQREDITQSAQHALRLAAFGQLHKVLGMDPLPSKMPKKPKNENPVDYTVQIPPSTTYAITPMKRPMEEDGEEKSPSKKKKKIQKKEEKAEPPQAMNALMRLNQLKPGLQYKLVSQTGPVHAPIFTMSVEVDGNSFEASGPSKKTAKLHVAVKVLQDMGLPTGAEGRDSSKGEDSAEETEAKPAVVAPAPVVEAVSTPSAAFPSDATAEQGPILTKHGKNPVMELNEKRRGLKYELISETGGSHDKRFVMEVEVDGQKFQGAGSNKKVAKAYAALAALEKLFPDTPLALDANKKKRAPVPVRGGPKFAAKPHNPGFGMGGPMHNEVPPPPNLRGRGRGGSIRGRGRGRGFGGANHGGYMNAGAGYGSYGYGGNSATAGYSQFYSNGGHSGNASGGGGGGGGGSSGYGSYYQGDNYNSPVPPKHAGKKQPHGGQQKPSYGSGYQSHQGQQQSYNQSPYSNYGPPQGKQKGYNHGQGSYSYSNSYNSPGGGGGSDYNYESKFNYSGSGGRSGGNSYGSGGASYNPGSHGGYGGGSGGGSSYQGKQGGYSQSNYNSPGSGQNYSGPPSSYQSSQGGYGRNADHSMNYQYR
UniProt P19823: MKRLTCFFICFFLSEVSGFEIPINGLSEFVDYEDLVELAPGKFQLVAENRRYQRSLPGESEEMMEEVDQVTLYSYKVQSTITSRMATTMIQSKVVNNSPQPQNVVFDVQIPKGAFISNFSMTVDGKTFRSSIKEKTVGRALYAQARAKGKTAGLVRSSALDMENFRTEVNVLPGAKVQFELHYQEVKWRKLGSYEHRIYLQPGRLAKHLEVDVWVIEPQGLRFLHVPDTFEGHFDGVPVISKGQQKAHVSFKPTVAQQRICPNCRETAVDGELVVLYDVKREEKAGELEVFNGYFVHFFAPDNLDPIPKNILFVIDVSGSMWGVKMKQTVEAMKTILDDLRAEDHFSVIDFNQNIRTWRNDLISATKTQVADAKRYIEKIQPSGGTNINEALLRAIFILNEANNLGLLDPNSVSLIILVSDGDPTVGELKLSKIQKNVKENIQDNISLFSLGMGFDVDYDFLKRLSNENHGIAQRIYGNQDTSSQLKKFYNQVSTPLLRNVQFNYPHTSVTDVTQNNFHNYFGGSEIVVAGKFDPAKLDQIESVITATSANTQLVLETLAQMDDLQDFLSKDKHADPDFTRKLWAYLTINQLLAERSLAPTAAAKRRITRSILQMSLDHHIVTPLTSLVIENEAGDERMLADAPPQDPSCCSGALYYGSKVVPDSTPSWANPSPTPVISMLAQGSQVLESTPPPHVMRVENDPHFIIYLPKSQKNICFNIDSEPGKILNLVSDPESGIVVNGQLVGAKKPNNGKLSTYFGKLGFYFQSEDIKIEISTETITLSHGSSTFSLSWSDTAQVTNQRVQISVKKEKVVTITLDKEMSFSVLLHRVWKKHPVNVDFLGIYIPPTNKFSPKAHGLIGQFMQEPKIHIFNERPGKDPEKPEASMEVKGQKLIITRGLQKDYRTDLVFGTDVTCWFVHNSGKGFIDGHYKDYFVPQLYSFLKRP
UniProt P78318: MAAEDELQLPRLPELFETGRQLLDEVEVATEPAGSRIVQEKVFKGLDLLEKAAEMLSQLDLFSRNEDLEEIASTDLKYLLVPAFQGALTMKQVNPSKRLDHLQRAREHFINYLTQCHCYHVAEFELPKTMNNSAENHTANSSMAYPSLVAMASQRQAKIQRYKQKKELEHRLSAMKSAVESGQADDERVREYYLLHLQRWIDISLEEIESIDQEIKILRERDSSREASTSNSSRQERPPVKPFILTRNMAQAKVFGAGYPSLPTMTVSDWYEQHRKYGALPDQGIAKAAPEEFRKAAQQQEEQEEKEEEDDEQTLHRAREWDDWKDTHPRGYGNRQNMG
UniProt Q8WZA9: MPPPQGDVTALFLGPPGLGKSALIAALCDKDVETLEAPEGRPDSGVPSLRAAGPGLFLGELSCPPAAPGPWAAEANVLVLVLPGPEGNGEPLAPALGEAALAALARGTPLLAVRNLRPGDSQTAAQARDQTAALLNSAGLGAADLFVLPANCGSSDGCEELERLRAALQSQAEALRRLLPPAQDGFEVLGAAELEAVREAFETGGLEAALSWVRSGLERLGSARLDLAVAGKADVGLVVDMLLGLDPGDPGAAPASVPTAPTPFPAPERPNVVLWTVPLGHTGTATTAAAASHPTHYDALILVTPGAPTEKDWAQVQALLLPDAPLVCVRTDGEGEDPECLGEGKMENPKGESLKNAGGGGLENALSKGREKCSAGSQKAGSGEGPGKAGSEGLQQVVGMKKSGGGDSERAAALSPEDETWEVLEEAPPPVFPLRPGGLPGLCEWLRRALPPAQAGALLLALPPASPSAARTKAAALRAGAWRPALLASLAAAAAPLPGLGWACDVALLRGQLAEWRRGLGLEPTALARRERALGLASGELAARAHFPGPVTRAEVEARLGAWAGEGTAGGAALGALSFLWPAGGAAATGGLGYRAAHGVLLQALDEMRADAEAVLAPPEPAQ
UniProt Q9NV31: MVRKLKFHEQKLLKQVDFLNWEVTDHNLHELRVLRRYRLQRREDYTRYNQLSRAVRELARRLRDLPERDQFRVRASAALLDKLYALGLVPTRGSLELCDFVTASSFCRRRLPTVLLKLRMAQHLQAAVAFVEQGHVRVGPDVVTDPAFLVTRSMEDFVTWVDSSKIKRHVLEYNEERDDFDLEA
UniProt Q12894: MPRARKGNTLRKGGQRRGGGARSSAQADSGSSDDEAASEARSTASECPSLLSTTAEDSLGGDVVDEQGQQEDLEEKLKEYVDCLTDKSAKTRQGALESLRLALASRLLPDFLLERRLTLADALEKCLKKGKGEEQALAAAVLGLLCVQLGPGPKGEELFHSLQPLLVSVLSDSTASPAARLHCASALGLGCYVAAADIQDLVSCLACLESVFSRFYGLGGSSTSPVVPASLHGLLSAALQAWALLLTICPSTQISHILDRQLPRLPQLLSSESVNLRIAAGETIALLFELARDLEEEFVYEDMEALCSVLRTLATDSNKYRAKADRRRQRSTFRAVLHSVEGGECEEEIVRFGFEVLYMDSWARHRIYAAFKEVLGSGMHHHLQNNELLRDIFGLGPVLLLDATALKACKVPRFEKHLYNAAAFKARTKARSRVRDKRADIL
UniProt Q9NVM9, whole entry, looked up: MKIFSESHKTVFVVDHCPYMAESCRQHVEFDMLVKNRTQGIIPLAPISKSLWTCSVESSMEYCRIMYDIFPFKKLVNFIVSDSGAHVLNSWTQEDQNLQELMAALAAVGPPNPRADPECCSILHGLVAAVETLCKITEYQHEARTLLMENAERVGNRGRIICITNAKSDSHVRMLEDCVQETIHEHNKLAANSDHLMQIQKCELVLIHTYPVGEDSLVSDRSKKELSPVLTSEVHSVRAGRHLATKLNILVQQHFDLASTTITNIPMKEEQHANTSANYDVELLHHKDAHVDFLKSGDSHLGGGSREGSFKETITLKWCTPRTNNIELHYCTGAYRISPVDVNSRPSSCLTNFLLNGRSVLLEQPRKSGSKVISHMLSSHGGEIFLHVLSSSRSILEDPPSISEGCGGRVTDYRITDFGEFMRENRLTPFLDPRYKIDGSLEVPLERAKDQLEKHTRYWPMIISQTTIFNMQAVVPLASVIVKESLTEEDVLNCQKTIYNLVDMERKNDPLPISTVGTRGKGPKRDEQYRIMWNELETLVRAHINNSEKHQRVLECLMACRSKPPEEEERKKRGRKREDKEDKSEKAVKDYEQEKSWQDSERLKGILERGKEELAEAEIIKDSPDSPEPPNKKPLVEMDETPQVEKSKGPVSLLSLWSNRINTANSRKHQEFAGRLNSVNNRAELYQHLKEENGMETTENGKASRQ
UniProt Q86U28: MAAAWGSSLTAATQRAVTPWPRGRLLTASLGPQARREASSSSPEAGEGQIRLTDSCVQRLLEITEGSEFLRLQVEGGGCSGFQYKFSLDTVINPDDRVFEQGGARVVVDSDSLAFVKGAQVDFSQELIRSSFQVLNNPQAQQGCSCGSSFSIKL
UniProt Q70UQ0: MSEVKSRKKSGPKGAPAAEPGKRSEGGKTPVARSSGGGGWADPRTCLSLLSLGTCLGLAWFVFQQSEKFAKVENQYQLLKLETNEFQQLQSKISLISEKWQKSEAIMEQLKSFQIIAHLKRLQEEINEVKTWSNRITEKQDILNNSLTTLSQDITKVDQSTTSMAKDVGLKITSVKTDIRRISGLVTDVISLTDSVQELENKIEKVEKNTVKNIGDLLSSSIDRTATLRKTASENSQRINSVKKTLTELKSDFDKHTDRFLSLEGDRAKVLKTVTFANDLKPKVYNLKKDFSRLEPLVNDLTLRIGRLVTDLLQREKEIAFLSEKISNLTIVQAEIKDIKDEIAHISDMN
UniProt P05161, whole entry, looked up: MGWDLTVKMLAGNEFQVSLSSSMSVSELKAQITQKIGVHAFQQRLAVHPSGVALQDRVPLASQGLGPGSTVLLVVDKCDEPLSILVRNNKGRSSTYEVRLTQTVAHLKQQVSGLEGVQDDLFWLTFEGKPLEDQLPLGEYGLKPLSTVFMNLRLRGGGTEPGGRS
UniProt Q13907: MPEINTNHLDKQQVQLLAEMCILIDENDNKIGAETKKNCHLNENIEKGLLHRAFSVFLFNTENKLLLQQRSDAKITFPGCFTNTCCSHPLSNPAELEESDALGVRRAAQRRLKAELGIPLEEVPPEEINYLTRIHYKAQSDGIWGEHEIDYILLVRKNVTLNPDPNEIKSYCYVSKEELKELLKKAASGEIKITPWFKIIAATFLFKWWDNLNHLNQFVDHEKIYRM

What was measured:
Test in all cases: log2 fold change, soluble protein after heating vs DMSO (PISA); higher = thermal stabilisation; K562 cells, 10 uM, 30 min; active = over 0.2 and 3.5 SD of the protein, either way, in both replicates (recomputed)
[1] = compound: COC1=CC=C(C=C1)CN2C=CC3=C2C=C(C=C3)C(=O)NO
Outline: (§1)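 K562 cells at 2×10^6 cells/mL were treated for 30 min with 10 μM compound, and aliquots were heated for 3 min over 48°C-58°C before pooling. Extraction used PBS with 0.5% NP-40 at 4°C, and soluble protein was the supernatant after 21,000xg for 90 min, measured by TMTpro 16plex LC-MS/MS with channel sums equalised. Thermal stability values, relative to control samples and from duplicates, are log2 fold changes.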

filanesib = compound: CON(C)C(=O)N1N=C(c2cc(F)ccc2F)S[C@@]1(CCCN)c1ccccc1 [filanesib]
Outline: as §1

zotarolimus = compound: CO[C@H]1C[C@@H]2CC[C@@H](C)[C@@](O)(O2)C(=O)C(=O)N2CCCC[C@H]2C(=O)O[C@H]([C@H](C)C[C@@H]2CC[C@H](n3cnnn3)[C@H](OC)C2)CC(=O)[C@H](C)/C=C(\C)[C@@H](O)[C@@H](OC)C(=O)[C@H](C)C[C@H](C)/C=C/C=C/C=C/1C [zotarolimus]
Outline: as §1

idasanutlin = compound: COc1cc(C(=O)O)ccc1NC(=O)[C@@H]1N[C@@H](CC(C)(C)C)[C@](C#N)(c2ccc(Cl)cc2F)[C@H]1c1cccc(Cl)c1F [idasanutlin]
Outline: as §1

alisertib = compound: COc1cc(Nc2ncc3c(n2)-c2ccc(Cl)cc2C(c2c(F)cccc2OC)=NC3)ccc1C(=O)O [alisertib]
Outline: as §1

[2] = compound: COc1cc2nc(-c3cc(F)ccc3O)nc(N[C@@H]3CNC[C@H]3C(C)(C)O)c2cc1OC
Outline: as §1

gefitinib = compound: COc1cc2ncnc(Nc3ccc(F)c(Cl)c3)c2cc1OCCCN1CCOCC1 [gefitinib]
Outline: as §1

[3] = compound: COc1cccc2cc(-c3nc([C@H]4CC[C@H](C(=O)O)CC4)n4ncnc(N)c34)[nH]c12
Outline: as §1

lapatinib = compound: CS(=O)(=O)CCNCc1ccc(-c2ccc3ncnc(Nc4ccc(OCc5cccc(F)c5)c(Cl)c4)c3c2)o1 [lapatinib]
Outline: as §1

pictilisib = compound: CS(=O)(=O)N1CCN(Cc2cc3nc(-c4cccc5[nH]ncc45)nc(N4CCOCC4)c3s2)CC1 [pictilisib]
Outline: as §1

[4] = compound: CS(=O)(=O)c1ccc(-c2cnc(N)c(C(=O)Nc3ccccc3)n2)cc1
Outline: as §1

crizotinib = compound: C[C@@H](Oc1cc(-c2cnn(C3CCNCC3)c2)cnc1N)c1c(Cl)ccc(F)c1Cl [crizotinib]
Outline: as §1

[5] = compound: C[C@@H]1COCCN1C2=NC(=NC(=C2)C3(CC3)S(=O)(=O)C)C4=C5C=CNC5=CC=C4
Outline: as §1

[6] = compound: C[C@H](C1=CC=C(C=C1)C(=O)NC2=C3C=CNC3=NC=C2)N
Outline: as §1

duvelisib = compound: C[C@H](Nc1ncnc2nc[nH]c12)c1cc2cccc(Cl)c2c(=O)n1-c1ccccc1 [duvelisib]
Outline: as §1

gandotinib = compound: Cc1cc(Nc2cc(CN3CCOCC3)c3nc(C)c(Cc4ccc(Cl)cc4F)n3n2)n[nH]1 [gandotinib]
Outline: as §1

tozasertib = compound: Cc1cc(Nc2cc(N3CCN(C)CC3)nc(Sc3ccc(NC(=O)C4CC4)cc3)n2)n[nH]1 [tozasertib]
Outline: as §1

[7] = compound: Cc1cc(SCc2sc(-c3ccc(C(F)(F)F)cc3)nc2C)ccc1OCC(=O)O
Outline: as §1

doramapimod = compound: Cc1ccc(-n2nc(C(C)(C)C)cc2NC(=O)Nc2ccc(OCCN3CCOCC3)c3ccccc23)cc1 [doramapimod]
Outline: as §1

ispinesib = compound: Cc1ccc(C(=O)N(CCCN)[C@@H](c2nc3cc(Cl)ccc3c(=O)n2Cc2ccccc2)C(C)C)cc1 [ispinesib]
Outline: as §1

Target | log2 fold change [1] | log2 fold change (filanesib) | log2 fold change (zotarolimus) | log2 fold change (idasanutlin) | log2 fold change (alisertib) | log2 fold change [2] | log2 fold change (gefitinib) | log2 fold change [3] | log2 fold change (lapatinib) | log2 fold change (pictilisib) | log2 fold change [4] | log2 fold change (crizotinib) | log2 fold change [5] | log2 fold change [6] | log2 fold change (duvelisib) | log2 fold change (gandotinib) | log2 fold change (tozasertib) | log2 fold change [7] | log2 fold change (doramapimod) | log2 fold change (ispinesib)
IGSF3 (UniProt O75054) | inactive: -0.07 | inactive: 0.057 | inactive: 0.002 | inactive: -0.03 | inactive: -0.014 | inactive: 0.075 | inactive: 0.007 | inactive: 0.079 | inactive: -0.07 | inactive: 0.078 | inactive: -0.022 | inactive: -0.02 | inactive: 0.049 | inactive: -0.022 | inactive: 0.012 | inactive: -0.046 | inactive: -0.095 | inactive: -0.008 | inactive: -0.007 | inactive: 0.001
IMPA1 isoform 3 (UniProt P29218) | inactive: -0.04 | inactive: -0.012 | inactive: -0.036 | inactive: 0.035 | inactive: -0.018 | inactive: 0.038 | inactive: 0.006 | inactive: 0.057 | inactive: 0.015 | inactive: 0.038 | inactive: 0.017 | inactive: 0.051 | inactive: 0.026 | inactive: -0.061 | inactive: 0.031 | inactive: -0.012 | inactive: -0.027 | inactive: -0.051 | inactive: -0.04 | inactive: 0.016
ILF3 isoform 7 (UniProt Q12906) | inactive: 0.022 | inactive: 0.213 | inactive: -0.047 | inactive: 0.095 | inactive: -0.061 | inactive: 0.174 | inactive: -0.022 | inactive: -0.06 | inactive: 0 | inactive: 0.018 | inactive: -0.159 | inactive: -0.074 | inactive: -0.181 | inactive: 0.286 | – | inactive: 0.1 | – | inactive: -0.001 | inactive: 0.118 | inactive: 0.034
ITIH2 (UniProt P19823) | inactive: -0.082 | inactive: 0.149 | inactive: -0.194 | inactive: 0.074 | inactive: -0.118 | inactive: -0.123 | inactive: -0.136 | inactive: 0.346 | inactive: -0.029 | inactive: -0.102 | inactive: -0.155 | inactive: 0.163 | inactive: -0.041 | inactive: 0.206 | inactive: -0.267 | inactive: -0.078 | inactive: -0.033 | inactive: -0.187 | inactive: 0.164 | inactive: -0.066
IGBP1 (UniProt P78318) | inactive: 0.004 | inactive: -0.042 | inactive: -0.018 | inactive: 0.002 | inactive: -0.014 | inactive: -0.071 | inactive: 0.003 | inactive: 0.021 | inactive: 0.089 | inactive: 0.063 | inactive: -0.012 | inactive: -0.045 | inactive: 0.027 | inactive: -0.016 | inactive: 0.041 | inactive: -0.055 | inactive: -0.012 | inactive: -0.033 | inactive: 0 | inactive: 0.016
IRGQ (UniProt Q8WZA9) | inactive: -0.024 | inactive: -0.042 | inactive: 0.054 | inactive: -0.075 | inactive: 0.064 | inactive: 0.096 | inactive: -0.016 | inactive: -0.008 | inactive: 0 | inactive: -0.01 | inactive: -0.022 | inactive: 0.008 | inactive: 0.066 | inactive: -0.052 | inactive: -0.003 | inactive: -0.026 | inactive: 0.001 | inactive: 0.049 | inactive: 0.023 | inactive: -0.01
IMP3 (UniProt Q9NV31) | inactive: -0.204 | inactive: -0.132 | inactive: 0.022 | inactive: -0.04 | inactive: -0.131 | inactive: 0.159 | inactive: 0.093 | inactive: 0.032 | inactive: -0.131 | inactive: 0.257 | inactive: 0.139 | inactive: 0.217 | inactive: 0.012 | inactive: 0.019 | inactive: 0.246 | inactive: 0.238 | inactive: -0.288 | inactive: -0.135 | inactive: 0.008 | inactive: -0.028
IFI30 (UniProt P13284) | inactive: 0.04 | inactive: 0.061 | inactive: 0.06 | inactive: 0.027 | inactive: -0.11 | inactive: -0.133 | inactive: -0.035 | inactive: 0.01 | inactive: 0.147 | inactive: -0.02 | inactive: 0.013 | inactive: -0.011 | inactive: -0.083 | inactive: -0.02 | – | inactive: 0.042 | – | inactive: 0.035 | inactive: -0.044 | inactive: 0.002
IFRD2 isoform 2 (UniProt Q12894) | inactive: -0.073 | inactive: 0.008 | inactive: 0.24 | inactive: 0 | inactive: -0.278 | inactive: -0.219 | inactive: 0.128 | active: 0.508 | inactive: 0.037 | inactive: 0.336 | inactive: 0.352 | inactive: -0.047 | inactive: 0.396 | inactive: -0.035 | – | inactive: 0.155 | – | inactive: -0.059 | inactive: 0.052 | inactive: 0.089
IL18 (UniProt Q14116) | inactive: -0.038 | inactive: 0.008 | inactive: -0.017 | inactive: -0.07 | inactive: -0.007 | inactive: 0.036 | inactive: -0.028 | inactive: 0.088 | inactive: 0.002 | inactive: -0.008 | inactive: 0.011 | inactive: 0.016 | inactive: -0.032 | inactive: -0.017 | inactive: 0.068 | inactive: -0.003 | inactive: -0.057 | inactive: -0.038 | inactive: 0.002 | inactive: 0.035
INTS13 (UniProt Q9NVM9) | inactive: 0.037 | inactive: -0.088 | inactive: -0.013 | inactive: -0.078 | inactive: 0.032 | inactive: 0.035 | inactive: 0.068 | inactive: -0.019 | inactive: -0.021 | inactive: -0.05 | inactive: 0.025 | inactive: -0.063 | inactive: 0.115 | inactive: -0.013 | inactive: 0.081 | inactive: -0.015 | inactive: -0.027 | inactive: 0.102 | inactive: -0.002 | inactive: -0.035
ISCA2 (UniProt Q86U28) | inactive: 0.08 | inactive: -0.062 | inactive: -0.033 | inactive: 0.008 | inactive: -0.041 | inactive: -0.035 | inactive: 0.003 | inactive: -0.024 | inactive: -0.026 | inactive: 0.045 | inactive: 0.047 | inactive: 0.087 | inactive: 0.101 | inactive: -0.101 | inactive: 0.052 | inactive: 0.036 | inactive: 0.057 | inactive: 0.06 | inactive: 0.014 | inactive: 0.026
INPPL1 (UniProt O15357) | inactive: -0.029 | inactive: 0.091 | inactive: 0.072 | inactive: -0.02 | inactive: 0.643 | inactive: 0.052 | inactive: 0.039 | inactive: -0.151 | inactive: -0.022 | inactive: -0.191 | inactive: -0.007 | inactive: -0.299 | inactive: 0.015 | inactive: 0.095 | inactive: 0.01 | inactive: 0.026 | inactive: -0.034 | inactive: 0.059 | inactive: 0.119 | inactive: -0.131
IKBIP (UniProt Q70UQ0) | inactive: -0.057 | inactive: 0.003 | inactive: -0.031 | inactive: -0.022 | inactive: -0.093 | inactive: -0.001 | inactive: 0.013 | inactive: -0.017 | inactive: 0.023 | inactive: 0.017 | inactive: -0.024 | inactive: 0.089 | inactive: 0.015 | inactive: 0.064 | inactive: 0.036 | inactive: -0.012 | inactive: -0.022 | inactive: -0.008 | inactive: 0.04 | inactive: 0.028
ISG15 (UniProt P05161) | inactive: 0.05 | inactive: -0.02 | inactive: 0.01 | inactive: 0.026 | inactive: -0.03 | inactive: -0.075 | inactive: 0.06 | inactive: -0.01 | inactive: 0.02 | inactive: 0.026 | inactive: 0.061 | inactive: -0.053 | inactive: 0.061 | inactive: -0.047 | inactive: 0.088 | inactive: -0.068 | inactive: 0.081 | inactive: 0.127 | inactive: -0.239 | inactive: 0.048
IDI1 isoform 2 (UniProt Q13907) | active: -0.314 | inactive: 0.026 | inactive: 0.033 | inactive: -0.006 | inactive: -0.003 | inactive: 0.007 | inactive: 0.024 | inactive: 0.039 | inactive: -0.014 | inactive: 0.089 | inactive: 0.052 | inactive: 0.093 | inactive: 0.062 | inactive: -0.018 | – | inactive: 0.014 | – | inactive: -0.028 | inactive: -0.063 | inactive: 0.045

Quoted from the listing (2 entries):
Target | log2 fold change [1] | log2 fold change (filanesib) | log2 fold change (zotarolimus) | log2 fold change (idasanutlin) | log2 fold change (alisertib) | log2 fold change [2] | log2 fold change (gefitinib) | log2 fold change [3] | log2 fold change (lapatinib) | log2 fold change (pictilisib) | log2 fold change [4] | log2 fold change (crizotinib) | log2 fold change [5] | log2 fold change [6] | log2 fold change (duvelisib) | log2 fold change (gandotinib) | log2 fold change (tozasertib) | log2 fold change [7] | log2 fold change (doramapimod) | log2 fold change (ispinesib)
IGSF3 (UniProt O75054) | inactive: -0.07 | inactive: 0.057 | inactive: 0.002 | inactive: -0.03 | inactive: -0.014 | inactive: 0.075 | inactive: 0.007 | inactive: 0.079 | inactive: -0.07 | inactive: 0.078 | inactive: -0.022 | inactive: -0.02 | inactive: 0.049 | inactive: -0.022 | inactive: 0.012 | inactive: -0.046 | inactive: -0.095 | inactive: -0.008 | inactive: -0.007 | inactive: 0.001
IMPA1 isoform 3 (UniProt P29218) | inactive: -0.04 | inactive: -0.012 | inactive: -0.036 | inactive: 0.035 | inactive: -0.018 | inactive: 0.038 | inactive: 0.006 | inactive: 0.057 | inactive: 0.015 | inactive: 0.038 | inactive: 0.017 | inactive: 0.051 | inactive: 0.026 | inactive: -0.061 | inactive: 0.031 | inactive: -0.012 | inactive: -0.027 | inactive: -0.051 | inactive: -0.04 | inactive: 0.016
